Test results: the supplement of paper PMC7666118
Some of the results follow.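 The calls were made as follows: active = dose-dependent thermal stabilisation significant by F-test of dose-response against flat model at 10% FDR; inactive = not significant.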

Protein sequences, listed by entry. Tags and fused reporters are not part of them. Lines headed by an entry give the natural chain unless they say otherwise; changes in a name come on top.
UniProt Q9H444: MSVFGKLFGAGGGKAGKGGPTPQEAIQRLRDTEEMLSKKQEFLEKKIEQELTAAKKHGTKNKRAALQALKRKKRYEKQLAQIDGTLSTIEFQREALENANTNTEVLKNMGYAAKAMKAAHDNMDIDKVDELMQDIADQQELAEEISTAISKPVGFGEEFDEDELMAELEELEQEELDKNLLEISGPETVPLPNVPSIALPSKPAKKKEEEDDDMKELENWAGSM
UniProt Q9H7U1: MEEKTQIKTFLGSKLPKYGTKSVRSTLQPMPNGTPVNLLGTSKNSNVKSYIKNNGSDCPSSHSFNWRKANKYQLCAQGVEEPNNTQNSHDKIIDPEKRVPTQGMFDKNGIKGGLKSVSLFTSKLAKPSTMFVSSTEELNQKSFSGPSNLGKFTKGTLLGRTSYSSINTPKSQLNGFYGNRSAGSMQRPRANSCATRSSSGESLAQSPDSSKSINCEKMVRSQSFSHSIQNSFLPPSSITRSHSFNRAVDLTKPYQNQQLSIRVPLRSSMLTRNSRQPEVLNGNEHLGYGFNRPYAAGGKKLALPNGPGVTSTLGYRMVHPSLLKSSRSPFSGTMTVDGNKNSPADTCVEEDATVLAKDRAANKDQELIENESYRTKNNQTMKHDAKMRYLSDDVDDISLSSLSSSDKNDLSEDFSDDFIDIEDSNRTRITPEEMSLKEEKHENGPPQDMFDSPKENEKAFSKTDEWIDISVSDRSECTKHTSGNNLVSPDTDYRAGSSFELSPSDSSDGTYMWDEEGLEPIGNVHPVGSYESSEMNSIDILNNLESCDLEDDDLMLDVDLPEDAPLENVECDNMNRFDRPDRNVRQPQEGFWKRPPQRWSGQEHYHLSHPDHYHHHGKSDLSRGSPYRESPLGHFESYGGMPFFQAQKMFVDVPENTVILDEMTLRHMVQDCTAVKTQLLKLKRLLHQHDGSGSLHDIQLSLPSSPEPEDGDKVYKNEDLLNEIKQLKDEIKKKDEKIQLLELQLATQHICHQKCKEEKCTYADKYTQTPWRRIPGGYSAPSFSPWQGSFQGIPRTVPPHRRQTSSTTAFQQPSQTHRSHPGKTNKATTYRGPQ
UniProt Q9Y2V7: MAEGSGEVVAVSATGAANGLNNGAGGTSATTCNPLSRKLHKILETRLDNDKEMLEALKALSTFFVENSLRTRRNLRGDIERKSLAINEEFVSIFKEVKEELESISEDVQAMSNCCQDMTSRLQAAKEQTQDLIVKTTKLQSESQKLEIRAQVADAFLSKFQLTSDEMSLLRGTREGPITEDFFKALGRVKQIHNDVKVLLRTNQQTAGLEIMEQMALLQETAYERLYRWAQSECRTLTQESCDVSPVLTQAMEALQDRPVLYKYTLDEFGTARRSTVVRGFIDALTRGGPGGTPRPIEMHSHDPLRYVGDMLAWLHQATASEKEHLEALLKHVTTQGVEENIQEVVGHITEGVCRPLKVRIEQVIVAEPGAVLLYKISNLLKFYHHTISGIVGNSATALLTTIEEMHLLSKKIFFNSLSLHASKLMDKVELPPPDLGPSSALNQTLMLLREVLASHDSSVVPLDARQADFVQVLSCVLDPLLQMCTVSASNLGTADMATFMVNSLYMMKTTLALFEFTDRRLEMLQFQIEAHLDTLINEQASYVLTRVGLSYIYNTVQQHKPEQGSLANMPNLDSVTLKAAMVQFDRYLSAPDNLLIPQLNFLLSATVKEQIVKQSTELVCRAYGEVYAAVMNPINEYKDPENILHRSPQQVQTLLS
UniProt P30281: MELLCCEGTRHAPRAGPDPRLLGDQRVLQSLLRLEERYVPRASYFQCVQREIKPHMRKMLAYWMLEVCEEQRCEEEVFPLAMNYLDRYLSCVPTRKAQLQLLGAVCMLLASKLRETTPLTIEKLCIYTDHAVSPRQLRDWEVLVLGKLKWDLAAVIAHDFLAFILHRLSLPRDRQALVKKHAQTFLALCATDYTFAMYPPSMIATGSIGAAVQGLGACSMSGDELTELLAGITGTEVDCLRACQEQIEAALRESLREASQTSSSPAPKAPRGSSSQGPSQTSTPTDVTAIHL
UniProt Q9BY43: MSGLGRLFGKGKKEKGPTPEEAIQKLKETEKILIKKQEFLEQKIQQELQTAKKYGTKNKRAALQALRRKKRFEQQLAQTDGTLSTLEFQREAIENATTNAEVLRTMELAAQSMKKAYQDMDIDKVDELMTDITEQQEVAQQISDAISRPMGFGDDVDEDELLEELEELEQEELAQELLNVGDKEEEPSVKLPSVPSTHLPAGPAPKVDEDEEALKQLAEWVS
UniProt Q9UBL6: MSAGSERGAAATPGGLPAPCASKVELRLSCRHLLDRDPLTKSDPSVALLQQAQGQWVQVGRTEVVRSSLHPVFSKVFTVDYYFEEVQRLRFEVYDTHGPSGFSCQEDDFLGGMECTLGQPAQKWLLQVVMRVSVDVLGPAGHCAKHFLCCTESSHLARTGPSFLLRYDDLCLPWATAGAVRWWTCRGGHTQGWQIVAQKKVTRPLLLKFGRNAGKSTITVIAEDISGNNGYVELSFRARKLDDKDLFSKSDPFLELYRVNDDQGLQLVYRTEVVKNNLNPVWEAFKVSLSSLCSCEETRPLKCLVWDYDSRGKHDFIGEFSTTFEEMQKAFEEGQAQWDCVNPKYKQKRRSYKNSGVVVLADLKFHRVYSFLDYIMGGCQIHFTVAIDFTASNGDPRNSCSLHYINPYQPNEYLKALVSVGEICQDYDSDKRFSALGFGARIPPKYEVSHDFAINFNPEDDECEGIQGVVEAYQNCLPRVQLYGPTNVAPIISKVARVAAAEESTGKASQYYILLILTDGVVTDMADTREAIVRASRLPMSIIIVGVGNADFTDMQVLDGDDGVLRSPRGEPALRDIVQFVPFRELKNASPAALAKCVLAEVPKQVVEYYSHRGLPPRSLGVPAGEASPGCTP
UniProt Q14004, whole entry, looked up: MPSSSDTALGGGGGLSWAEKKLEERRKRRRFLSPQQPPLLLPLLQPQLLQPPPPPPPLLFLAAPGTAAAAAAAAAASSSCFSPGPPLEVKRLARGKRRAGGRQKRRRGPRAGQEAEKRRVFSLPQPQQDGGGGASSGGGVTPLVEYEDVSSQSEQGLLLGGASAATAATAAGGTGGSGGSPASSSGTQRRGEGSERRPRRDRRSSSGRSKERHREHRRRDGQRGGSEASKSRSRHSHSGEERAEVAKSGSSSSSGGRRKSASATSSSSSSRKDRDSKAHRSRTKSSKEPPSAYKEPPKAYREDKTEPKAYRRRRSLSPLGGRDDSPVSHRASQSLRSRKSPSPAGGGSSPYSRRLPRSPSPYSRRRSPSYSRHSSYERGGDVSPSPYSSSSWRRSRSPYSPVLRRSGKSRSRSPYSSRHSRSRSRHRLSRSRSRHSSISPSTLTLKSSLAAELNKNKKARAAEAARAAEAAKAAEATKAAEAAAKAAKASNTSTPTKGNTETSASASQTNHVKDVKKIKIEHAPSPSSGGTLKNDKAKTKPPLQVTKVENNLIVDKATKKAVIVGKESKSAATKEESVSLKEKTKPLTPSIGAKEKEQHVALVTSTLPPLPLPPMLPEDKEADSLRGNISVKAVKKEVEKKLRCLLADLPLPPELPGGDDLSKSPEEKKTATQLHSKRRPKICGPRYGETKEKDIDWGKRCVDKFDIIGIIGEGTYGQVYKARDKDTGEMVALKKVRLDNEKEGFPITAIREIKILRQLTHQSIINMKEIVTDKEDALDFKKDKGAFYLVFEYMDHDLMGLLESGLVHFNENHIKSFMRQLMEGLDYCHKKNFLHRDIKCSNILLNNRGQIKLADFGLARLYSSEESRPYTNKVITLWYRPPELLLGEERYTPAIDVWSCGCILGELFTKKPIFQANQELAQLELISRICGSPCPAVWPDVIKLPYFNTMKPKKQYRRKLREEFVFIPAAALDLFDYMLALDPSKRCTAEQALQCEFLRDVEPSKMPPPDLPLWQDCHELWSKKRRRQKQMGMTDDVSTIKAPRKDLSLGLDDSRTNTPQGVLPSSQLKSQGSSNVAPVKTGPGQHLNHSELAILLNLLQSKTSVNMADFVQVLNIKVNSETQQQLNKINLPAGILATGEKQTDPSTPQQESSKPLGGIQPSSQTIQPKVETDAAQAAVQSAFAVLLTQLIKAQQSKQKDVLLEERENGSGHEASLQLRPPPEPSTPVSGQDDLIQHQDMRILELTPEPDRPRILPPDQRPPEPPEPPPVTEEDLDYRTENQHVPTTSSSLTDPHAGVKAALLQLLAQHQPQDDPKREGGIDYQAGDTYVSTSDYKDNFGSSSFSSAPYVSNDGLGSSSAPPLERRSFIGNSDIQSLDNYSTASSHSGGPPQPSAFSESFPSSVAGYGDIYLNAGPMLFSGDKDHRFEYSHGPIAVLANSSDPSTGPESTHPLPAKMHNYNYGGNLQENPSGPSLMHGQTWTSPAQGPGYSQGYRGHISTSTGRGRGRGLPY
UniProt Q8N0X4: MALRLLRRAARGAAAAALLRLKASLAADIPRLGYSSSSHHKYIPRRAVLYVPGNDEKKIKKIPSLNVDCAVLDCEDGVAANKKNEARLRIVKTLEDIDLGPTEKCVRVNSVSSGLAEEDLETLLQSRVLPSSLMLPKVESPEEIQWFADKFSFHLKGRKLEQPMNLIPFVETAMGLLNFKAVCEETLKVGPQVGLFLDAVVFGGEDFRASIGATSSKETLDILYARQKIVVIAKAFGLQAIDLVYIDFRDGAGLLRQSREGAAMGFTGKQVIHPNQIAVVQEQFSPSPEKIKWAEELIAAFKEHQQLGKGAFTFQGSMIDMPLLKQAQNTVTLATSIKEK
UniProt Q86WJ1: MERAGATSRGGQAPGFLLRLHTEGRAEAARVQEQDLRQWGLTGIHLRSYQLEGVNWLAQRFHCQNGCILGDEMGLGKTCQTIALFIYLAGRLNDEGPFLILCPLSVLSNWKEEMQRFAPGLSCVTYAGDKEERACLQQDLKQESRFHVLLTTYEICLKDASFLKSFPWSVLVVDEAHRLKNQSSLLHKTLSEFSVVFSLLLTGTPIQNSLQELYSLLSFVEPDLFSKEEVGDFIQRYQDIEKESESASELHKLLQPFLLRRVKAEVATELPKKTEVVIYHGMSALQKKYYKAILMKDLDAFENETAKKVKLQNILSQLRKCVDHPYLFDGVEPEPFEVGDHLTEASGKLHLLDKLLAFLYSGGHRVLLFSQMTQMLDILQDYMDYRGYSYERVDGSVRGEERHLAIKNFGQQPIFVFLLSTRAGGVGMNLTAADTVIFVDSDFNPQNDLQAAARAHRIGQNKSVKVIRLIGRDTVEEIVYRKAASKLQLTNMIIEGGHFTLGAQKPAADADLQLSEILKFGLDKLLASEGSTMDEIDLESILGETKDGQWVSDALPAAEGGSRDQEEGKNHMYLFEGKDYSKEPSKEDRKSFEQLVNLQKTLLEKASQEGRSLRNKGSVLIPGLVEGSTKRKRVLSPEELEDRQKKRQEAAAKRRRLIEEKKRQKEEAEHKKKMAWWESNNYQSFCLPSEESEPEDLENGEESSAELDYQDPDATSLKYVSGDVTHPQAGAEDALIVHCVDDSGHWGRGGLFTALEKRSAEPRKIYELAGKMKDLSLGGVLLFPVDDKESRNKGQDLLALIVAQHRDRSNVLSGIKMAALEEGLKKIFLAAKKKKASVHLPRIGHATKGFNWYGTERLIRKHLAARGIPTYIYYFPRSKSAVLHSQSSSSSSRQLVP
UniProt Q96KP4: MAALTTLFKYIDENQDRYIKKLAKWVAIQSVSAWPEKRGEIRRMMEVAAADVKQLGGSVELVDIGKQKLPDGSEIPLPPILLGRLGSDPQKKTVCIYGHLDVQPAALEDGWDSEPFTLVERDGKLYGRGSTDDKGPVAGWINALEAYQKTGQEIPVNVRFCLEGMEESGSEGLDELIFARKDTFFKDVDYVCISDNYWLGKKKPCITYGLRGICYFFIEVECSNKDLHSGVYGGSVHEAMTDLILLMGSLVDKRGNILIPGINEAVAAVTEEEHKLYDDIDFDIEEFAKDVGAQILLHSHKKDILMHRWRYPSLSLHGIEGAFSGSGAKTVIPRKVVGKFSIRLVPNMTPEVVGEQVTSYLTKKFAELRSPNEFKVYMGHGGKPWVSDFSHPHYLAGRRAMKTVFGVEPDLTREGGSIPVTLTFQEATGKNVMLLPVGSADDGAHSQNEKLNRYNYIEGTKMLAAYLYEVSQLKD
UniProt P42575: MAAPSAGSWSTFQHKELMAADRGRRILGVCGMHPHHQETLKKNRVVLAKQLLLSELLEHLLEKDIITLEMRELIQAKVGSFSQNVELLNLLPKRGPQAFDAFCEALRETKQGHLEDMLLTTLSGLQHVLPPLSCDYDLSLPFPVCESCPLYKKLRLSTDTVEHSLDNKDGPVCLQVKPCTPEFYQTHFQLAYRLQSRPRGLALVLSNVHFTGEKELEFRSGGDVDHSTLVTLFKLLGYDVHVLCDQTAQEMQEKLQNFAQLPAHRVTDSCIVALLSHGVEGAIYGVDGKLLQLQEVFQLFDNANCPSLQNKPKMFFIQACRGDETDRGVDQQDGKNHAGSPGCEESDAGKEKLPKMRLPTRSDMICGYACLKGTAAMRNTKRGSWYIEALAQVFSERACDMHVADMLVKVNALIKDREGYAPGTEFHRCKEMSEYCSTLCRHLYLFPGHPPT

Compound: Nc1nc2c(ncn2[C@@H]2O[C@H](COP(=O)(O)OP(=O)(O)OP(=O)(O)O)[C@@H](O)[C@H]2O)c(=O)[nH]1
Experiment: dose-dependent thermal stabilisation call (2D-TPP, DLPTP, 10% FDR) (binary (1 = stabilised)); higher = stabilised by the compound
Settings: system: Jurkat gel-filtered lysate; concentration range 1-500 µM
Method: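 2D thermal proteome profiling in gel-filtered Jurkat E6.1 lysate (2 mg/ml) treated with NaGTP (0, 1, 10, 100, 500 uM) for 10 min at room temperature, then heated 3 min at one of 12 temperatures (42-63.9 C). Soluble protein was quantified by TMT10 MS. The value is the DLPTP call of the paper: dose-dependent thermal stabilisation over all temperatures at 10% FDR (F-test of a dose-response against a flat model); one experiment, one call per tested protein.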

Target | dose-dependent thermal stabilisation call
CHMP4B (UniProt Q9H444) | inactive: 0
CDC25B (UniProt P30305) | inactive: 0
CCSER2 (UniProt Q9H7U1) | inactive: 0
COX5A (UniProt P20674) | inactive: 0
CKS1B (UniProt P61024) | inactive: 0
CHMP2B (UniProt Q9UQN3) | inactive: 0
CASP6 (UniProt P55212) | inactive: 0
CHMP2A (UniProt O43633) | inactive: 0
CBS (UniProt P35520) | inactive: 0
CPVL (UniProt Q9H3G5) | inactive: 0
COG6 (UniProt Q9Y2V7) | inactive: 0
CHD4 (UniProt Q14839) | inactive: 0
CCND3 (UniProt P30281) | inactive: 0
CEP44 (UniProt Q9C0F1) | inactive: 0
CHTF8 (UniProt P0CG12) | inactive: 0
CHMP4A (UniProt Q9BY43) | inactive: 0
CHAF1B (UniProt Q13112) | inactive: 0
COG7 (UniProt P83436) | inactive: 0
CPNE7 (UniProt Q9UBL6) | inactive: 0
CPSF6 (UniProt Q16630) | active: 1

Target | dose-dependent thermal stabilisation call
CORO1C (UniProt Q9ULV4) | inactive: 0
CNOT6L (UniProt Q96LI5) | inactive: 0
CDC34 (UniProt P49427) | inactive: 0
CPSF7 (UniProt Q8N684) | inactive: 0
CDC16 (UniProt Q13042) | inactive: 0
CEP250 (UniProt Q9BV73) | inactive: 0
CDK13 (UniProt Q14004) | inactive: 0
CLYBL (UniProt Q8N0X4) | inactive: 0
CHD1L (UniProt Q86WJ1) | active: 1
CCT5 (UniProt P48643) | inactive: 0
CEP170 (UniProt Q5SW79) | inactive: 0
CNDP2 (UniProt Q96KP4) | inactive: 0
CD2BP2 (UniProt O95400) | inactive: 0
CCNH (UniProt P51946) | active: 1
CEP85 (UniProt Q6P2H3) | inactive: 0
CDKN2C (UniProt P42773) | inactive: 0
CDC27 (UniProt P30260) | inactive: 0
CCDC85C (UniProt A6NKD9) | inactive: 0
CLNS1A (UniProt P54105) | inactive: 0
CASP2 (UniProt P42575) | inactive: 0

Reformatted: results already given
Target	dose-dependent thermal stabilisation call
CHMP2A (UniProt O43633)	inactive: 0
CBS (UniProt P35520)	inactive: 0
CPVL (UniProt Q9H3G5)	inactive: 0
COG6 (UniProt Q9Y2V7)	inactive: 0
CHD4 (UniProt Q14839)	inactive: 0
CCND3 (UniProt P30281)	inactive: 0
CEP44 (UniProt Q9C0F1)	inactive: 0
CHTF8 (UniProt P0CG12)	inactive: 0
CHMP4A (UniProt Q9BY43)	inactive: 0
